This is an account of results in patent publication US20200222503A1.

By UniProt entry, the sequences of proteins in these tests, tags left out. Where a name states a change or a piece, a line headed by the entry shows the natural chain unless it says otherwise. Residues count along the entry.
UniProt P27512: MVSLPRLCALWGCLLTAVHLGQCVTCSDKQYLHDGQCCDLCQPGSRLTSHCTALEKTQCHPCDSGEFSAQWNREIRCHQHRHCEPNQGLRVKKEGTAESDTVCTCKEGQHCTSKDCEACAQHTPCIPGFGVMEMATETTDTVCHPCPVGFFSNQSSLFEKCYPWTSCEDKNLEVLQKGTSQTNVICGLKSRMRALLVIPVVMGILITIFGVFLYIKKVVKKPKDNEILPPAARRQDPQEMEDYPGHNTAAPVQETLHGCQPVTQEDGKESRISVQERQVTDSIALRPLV
murine CD40 on CHOK1 cells: residues 20-289 of P27512
recombinant murine CD40 protein: residues 24-193 of P27512
UniProt P97797: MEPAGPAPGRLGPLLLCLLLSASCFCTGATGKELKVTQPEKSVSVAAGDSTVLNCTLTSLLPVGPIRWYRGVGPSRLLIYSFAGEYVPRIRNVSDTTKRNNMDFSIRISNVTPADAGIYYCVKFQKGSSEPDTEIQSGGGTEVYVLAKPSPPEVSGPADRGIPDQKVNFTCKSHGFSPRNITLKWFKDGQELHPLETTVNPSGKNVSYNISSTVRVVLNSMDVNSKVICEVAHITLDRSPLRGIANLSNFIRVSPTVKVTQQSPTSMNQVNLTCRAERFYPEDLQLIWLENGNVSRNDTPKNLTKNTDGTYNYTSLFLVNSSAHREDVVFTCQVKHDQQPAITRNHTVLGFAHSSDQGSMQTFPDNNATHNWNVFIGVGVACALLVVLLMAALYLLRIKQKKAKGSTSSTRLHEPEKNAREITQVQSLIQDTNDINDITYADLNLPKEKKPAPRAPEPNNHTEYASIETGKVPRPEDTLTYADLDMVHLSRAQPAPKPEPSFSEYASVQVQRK
UniProt Q8VIM0: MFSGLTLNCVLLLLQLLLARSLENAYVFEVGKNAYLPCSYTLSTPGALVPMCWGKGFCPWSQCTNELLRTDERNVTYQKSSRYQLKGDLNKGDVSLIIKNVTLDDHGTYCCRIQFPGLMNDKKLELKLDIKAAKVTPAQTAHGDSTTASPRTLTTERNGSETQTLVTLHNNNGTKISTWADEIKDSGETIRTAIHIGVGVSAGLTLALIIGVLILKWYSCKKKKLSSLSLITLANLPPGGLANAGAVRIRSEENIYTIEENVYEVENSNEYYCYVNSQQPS
UniProt Q02242: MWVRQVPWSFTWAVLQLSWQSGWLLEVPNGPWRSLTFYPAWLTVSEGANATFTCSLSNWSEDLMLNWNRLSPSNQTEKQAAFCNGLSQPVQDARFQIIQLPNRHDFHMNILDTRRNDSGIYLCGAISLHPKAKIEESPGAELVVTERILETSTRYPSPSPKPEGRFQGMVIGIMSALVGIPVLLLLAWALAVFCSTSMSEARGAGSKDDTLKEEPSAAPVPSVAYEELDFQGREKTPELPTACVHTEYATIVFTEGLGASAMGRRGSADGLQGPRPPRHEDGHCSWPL

Results are given in words; binding and its absence hold for the method and conditions named. Some entries that bind do so weakly or less than the wild type.

For experiment [1], the target named is murine CD40 on CHOK1 cells (murine) (UniProt P27512). Description: flow cytometry on CHOK1/mCD40 cells. Background: In flow cytometry, cells or beads pass a laser one at a time.
Experiment [2] deals with recombinant murine CD40 protein (murine) (UniProt P27512). The experiment can be described thus: ELISA, plate-bound recombinant murine CD40, CD40L-specific antibody detection. (In general: ELISA stands for enzyme-linked immunosorbent assay.)
The target is the same in experiment [3]. Description: ELISA.
Experiment [4] shares this target. Description: SPR. Background: In SPR one partner is held on a chip, and binding of the other changes the refractive index at the surface.
The target of experiment [5] is T1, murine OX40 on CHOK1 cells (murine) (UniProt P47741).
T1 sequence (looked up): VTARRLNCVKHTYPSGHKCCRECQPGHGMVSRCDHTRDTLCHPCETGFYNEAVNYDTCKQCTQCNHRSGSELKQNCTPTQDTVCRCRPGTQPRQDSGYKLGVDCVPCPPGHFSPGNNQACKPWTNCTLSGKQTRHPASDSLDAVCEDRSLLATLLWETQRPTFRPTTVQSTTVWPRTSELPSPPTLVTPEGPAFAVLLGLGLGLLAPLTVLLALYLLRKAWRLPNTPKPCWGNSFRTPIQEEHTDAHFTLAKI
Description: flow cytometry on CHOK1-mOX40 cells.

Experiment [6] has as its target T1, murine OX40 on CHOK1 cells (murine). Description: flow cytometry on transfected CHOK1 cells.

For “murine CD172a(SIRPα)-Fc-CD40L chimeric protein (from UniProt P97797 32-373; P27548 47-260) (Fc fusion)”, the binding result in experiment [1], in experiment [2], in experiment [3] and in experiment [4] was “binds” each time.

On to “murine TIM3-Fc-OX40L chimeric protein (from UniProt Q8VIM0 20-193; P43488 51-198) (Fc fusion)”, for which the binding result in experiment [5] was “binds”.

On to “murine PD-1-Fc-OX40L chimeric protein (from UniProt Q02242 25-169; P43488 51-198) (Fc fusion)”, for which the binding result in experiment [6] is listed as “binds”.
